# The supplement of paper PMC8728848
# The list shows a part of the results.
# Tests used:
# Assay in all cases: glycan array binding signal (z-score within array); higher = stronger binding
# Conditions in all cases: glycan notation: IUPAC condensed, linker removed
# [1] = target: GlcNAc(b1-3)Gal(b1-4)GlcNAc(b1-2)[GlcNAc(b1-3)Gal(b1-4)GlcNAc(b1-6)]Man(a1-6)[GlcNAc(b1-3)Gal(b1-4)GlcNAc(b1-2)Man(a1-3)]Man(b1-4)GlcNAc(b1-4)GlcNAc
# How it was run: (§1)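 The binding signal is a Z-score computed within each array. Data were drawn from 3228 arrays in the Consortium for Functional Glycomics database, restricted to those with a known protein sequence. Scores were averaged over arrays of the same protein sequence at different concentrations or buffers, and over linkers, and negative values can be taken as non-binding.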
# [2] = target: GlcNAc(b1-3)Gal(b1-4)GlcNAc(b1-3)Gal(b1-4)GlcNAc
# How it was run: as §1
# [3] = target: GlcNAc(b1-3)Gal(b1-4)GlcNAc(b1-3)Gal(b1-4)GlcNAc(b1-2)Man(a1-3)[GlcNAc(b1-3)Gal(b1-4)GlcNAc(b1-3)Gal(b1-4)GlcNAc(b1-2)Man(a1-6)]Man(b1-4)GlcNAc(b1-4)GlcNAc
# How it was run: as §1
# [4] = target: GlcNAc(b1-3)Gal(b1-4)GlcNAc(b1-3)Gal(b1-4)GlcNAc(b1-2)Man(a1-3)[GlcNAc(b1-3)Gal(b1-4)GlcNAc(b1-3)Gal(b1-4)GlcNAc(b1-2)Man(a1-6)]Man(b1-4)GlcNAc(b1-4)[Fuc(a1-6)]GlcNAc
# How it was run: as §1
# [5] = target: GlcNAc(b1-3)Gal(b1-4)GlcNAc(b1-3)Gal(b1-4)GlcNAc(b1-2)[GlcNAc(b1-3)Gal(b1-4)GlcNAc(b1-3)Gal(b1-4)GlcNAc(b1-6)]Man(a1-6)[GlcNAc(b1-3)Gal(b1-4)GlcNAc(b1-3)Gal(b1-4)GlcNAc(b1-2)Man(a1-3)]Man(b1-4)GlcNAc(b1-4)[Fuc(a1-6)]GlcNAc
# How it was run: as §1
# [6] = target: GlcNAc(b1-3)Gal(b1-4)GlcNAc(b1-3)Gal(b1-4)GlcNAc(b1-3)Gal(b1-4)GlcNAc(b1-2)Man(a1-3)[GlcNAc(b1-3)Gal(b1-4)GlcNAc(b1-3)Gal(b1-4)GlcNAc(b1-3)Gal(b1-4)GlcNAc(b1-2)Man(a1-6)]Man(b1-4)GlcNAc(b1-4)GlcNAc
# How it was run: as §1
# [7] = target: GlcNAc(b1-3)Gal(b1-4)GlcNAc(b1-3)Gal(b1-4)GlcNAc(b1-3)Gal(b1-4)GlcNAc(b1-2)Man(a1-3)[GlcNAc(b1-3)Gal(b1-4)GlcNAc(b1-3)Gal(b1-4)GlcNAc(b1-3)Gal(b1-4)GlcNAc(b1-2)Man(a1-6)]Man(b1-4)GlcNAc(b1-4)[Fuc(a1-6)]GlcNAc
# How it was run: as §1
# [8] = target: GlcNAc(b1-3)Gal(b1-4)GlcNAc(b1-3)Gal(b1-4)GlcNAc(b1-3)Gal(b1-4)GlcNAc(b1-2)[GlcNAc(b1-3)Gal(b1-4)GlcNAc(b1-3)Gal(b1-4)GlcNAc(b1-3)Gal(b1-4)GlcNAc(b1-6)]Man(a1-6)[GlcNAc(b1-3)Gal(b1-4)GlcNAc(b1-3)Gal(b1-4)GlcNAc(b1-3)Gal(b1-4)GlcNAc(b1-2)Man(a1-3)]Man(b1-4)GlcNAc(b1-4)[Fuc(a1-6)]GlcNAc
# How it was run: as §1
# [9] = target: GlcNAc(b1-3)Gal(b1-4)GlcNAc(b1-3)Gal(b1-4)GlcNAc(b1-3)Gal(b1-4)GlcNAc(b1-3)Gal(b1-4)GlcNAc(b1-2)Man(a1-3)[GlcNAc(b1-3)Gal(b1-4)GlcNAc(b1-3)Gal(b1-4)GlcNAc(b1-3)Gal(b1-4)GlcNAc(b1-3)Gal(b1-4)GlcNAc(b1-2)Man(a1-6)]Man(b1-4)GlcNAc(b1-4)GlcNAc
# How it was run: as §1
# [10] = target: GlcNAc(b1-3)Gal(b1-4)GlcNAc(b1-3)Gal(b1-4)GlcNAc(b1-3)Gal(b1-4)GlcNAc(b1-3)Gal(b1-4)GlcNAc(b1-2)Man(a1-3)[GlcNAc(b1-3)Gal(b1-4)GlcNAc(b1-3)Gal(b1-4)GlcNAc(b1-3)Gal(b1-4)GlcNAc(b1-3)Gal(b1-4)GlcNAc(b1-2)Man(a1-6)]Man(b1-4)GlcNAc(b1-4)[Fuc(a1-6)]GlcNAc
# How it was run: as §1
# [11] = target: GlcNAc(b1-3)Gal(b1-4)GlcNAc(b1-3)Gal(b1-4)GlcNAc(b1-3)Gal(b1-4)GlcNAc(b1-3)Gal(b1-4)GlcNAc(b1-2)[GlcNAc(b1-3)Gal(b1-4)GlcNAc(b1-3)Gal(b1-4)GlcNAc(b1-3)Gal(b1-4)GlcNAc(b1-3)Gal(b1-4)GlcNAc(b1-6)]Man(a1-6)[GlcNAc(b1-3)Gal(b1-4)GlcNAc(b1-3)Gal(b1-4)GlcNAc(b1-3)Gal(b1-4)GlcNAc(b1-3)Gal(b1-4)GlcNAc(b1-2)Man(a1-3)]Man(b1-4)GlcNAc(b1-4)[Fuc(a1-6)]GlcNAc
# How it was run: as §1
# [12] = target: GlcNAc(b1-3)Gal(b1-4)GlcNAc(b1-3)Gal(b1-4)GlcNAc(b1-3)GalNAc
# How it was run: as §1
# [13] = target: GlcNAc(b1-3)Gal(b1-4)GlcNAc(b1-3)GalNAc
# How it was run: as §1
# [14] = target: GlcNAc(b1-3)Gal(b1-4)GlcNAc(b1-3)[GlcNAc(b1-3)Gal(b1-4)GlcNAc(b1-3)]GalNAc
# How it was run: as §1
# [15] = target: GlcNAc(b1-3)Gal(b1-4)GlcNAc(b1-6)[Gal(b1-3)]GalNAc
# How it was run: as §1
# [16] = target: GlcNAc(b1-3)Gal(b1-4)GlcNAc(b1-6)[GlcNAc(b1-3)Gal(b1-3)]GalNAc
# How it was run: as §1
# [17] = target: GlcNAc(b1-3)Gal(b1-4)GlcNAc(b1-6)[GlcNAc(b1-3)]Gal(b1-4)GlcNAc
# How it was run: as §1
# [18] = target: GlcNAc(b1-3)GalNAc
# How it was run: as §1
# [19] = target: GlcNAc(b1-3)Man
# How it was run: as §1
# [20] = target: GlcNAc(b1-3)[GlcNAc(b1-4)][GlcNAc(b1-6)]GlcNAc
# How it was run: as §1
# [21] = target: GlcNAc(b1-3)[GlcNAc(b1-6)]Gal(b1-4)GlcNAc
# How it was run: as §1
# [22] = target: GlcNAc(b1-3)[GlcNAc(b1-6)]GalNAc
# How it was run: as §1
# [23] = target: GlcNAc(b1-4)Gal(b1-4)GlcNAc
# How it was run: as §1
# [24] = target: GlcNAc(b1-4)GlcNAc
# How it was run: as §1
# [25] = target: GlcNAc(b1-4)GlcNAc(b1-4)GlcNAc
# How it was run: as §1
# [26] = target: GlcNAc(b1-4)GlcNAc(b1-4)GlcNAc(b1-4)GlcNAc(b1-4)GlcNAc
# How it was run: as §1
# [27] = target: GlcNAc(b1-4)GlcNAc(b1-4)GlcNAc(b1-4)GlcNAc(b1-4)GlcNAc(b1-4)GlcNAc
# How it was run: as §1
# [28] = target: GlcNAc(b1-4)[GlcNAc(b1-6)]GalNAc
# How it was run: as §1
# [29] = target: GlcNAc(b1-6)Gal(b1-4)GlcNAc
# How it was run: as §1
# [30] = target: GlcNAc(b1-6)GalNAc
# How it was run: as §1
# [31] = target: GlcNAc3Prop(b1-4)GlcNAc
# How it was run: as §1
# [32] = target: GlcNAc6S(b1-3)Gal(b1-4)GlcNAc
# How it was run: as §1
# [33] = target: Kdn(a2-3)Gal(b1-3)GalNAc
# How it was run: as §1
# [34] = target: Kdn(a2-3)Gal(b1-3)GlcNAc
# How it was run: as §1
# [35] = target: Kdn(a2-3)Gal(b1-4)Glc
# How it was run: as §1
# [36] = target: Kdn(a2-3)Gal(b1-4)GlcNAc
# How it was run: as §1
# [37] = target: Kdn(a2-3)Gal(b1-4)[Fuc(a1-3)]GlcNAc
# How it was run: as §1
# [38] = target: Kdn(a2-6)Gal(b1-4)GlcNAc
# How it was run: as §1
# [39] = target: Man(a1-2)Man(a1-2)Man(a1-3)Man
# How it was run: as §1
# [40] = target: Man(a1-2)Man(a1-2)Man(a1-6)[Man(a1-3)]Man
# How it was run: as §1
# [41] = target: Man(a1-2)Man(a1-3)Man
# How it was run: as §1
# [42] = target: Man(a1-2)Man(a1-3)[Man(a1-2)Man(a1-6)]Man
# How it was run: as §1
# [43] = target: Man(a1-2)Man(a1-3)[Man(a1-2)Man(a1-6)]Man(a1-6)[Man(a1-2)Man(a1-2)Man(a1-3)]Man
# How it was run: as §1
# [44] = target: Man(a1-2)Man(a1-3)[Man(a1-2)Man(a1-6)]Man(a1-6)[Man(a1-2)Man(a1-2)Man(a1-3)]Man(b1-4)GlcNAc(b1-4)GlcNAc
# How it was run: as §1
# [45] = target: Man(a1-2)Man(a1-3)[Man(a1-6)]Man(a1-6)[Man(a1-2)Man(a1-3)]Man(b1-4)GlcNAc(b1-4)GlcNAc
# How it was run: as §1
# [46] = target: Man(a1-2)Man(a1-6)[Man(a1-3)]Man(a1-6)[Man(a1-2)Man(a1-2)Man(a1-3)]Man
# How it was run: as §1
# [47] = target: Man(a1-2)Man(a1-6)[Man(a1-3)]Man(a1-6)[Man(a1-2)Man(a1-2)Man(a1-3)]Man(b1-4)GlcNAc(b1-4)GlcNAc
# How it was run: as §1
# [48] = target: Man(a1-3)[Man(a1-6)]Man
# How it was run: as §1
# [49] = target: Man(a1-3)[Man(a1-6)]Man(a1-6)[Man(a1-2)Man(a1-3)]Man(b1-4)GlcNAc(b1-4)GlcNAc
# How it was run: as §1
# [50] = target: Man(a1-3)[Man(a1-6)]Man(a1-6)[Man(a1-3)]Man
# How it was run: as §1
# [51] = target: Man(a1-3)[Man(a1-6)]Man(a1-6)[Man(a1-3)]Man(b1-4)GlcNAc(b1-4)GlcNAc
# How it was run: as §1
# [52] = target: Man(a1-3)[Man(a1-6)]Man(b1-4)GlcNAc(b1-4)GlcNAc
# How it was run: as §1
# [53] = target: Man(a1-3)[Man(a1-6)]Man(b1-4)GlcNAc(b1-4)[Fuc(a1-6)]GlcNAc
# How it was run: as §1
binder,measurement,setting,value
KISKRILTGKK [NK11 (Sus scrofa)],glycan array binding signal (z-score),[1],-0.711
same,glycan array binding signal (z-score),[2],-0.783
same,glycan array binding signal (z-score),[3],1.86
same,glycan array binding signal (z-score),[4],1.97
same,glycan array binding signal (z-score),[5],2.97
same,glycan array binding signal (z-score),[6],1.4
same,glycan array binding signal (z-score),[7],2.29
same,glycan array binding signal (z-score),[8],2.73
same,glycan array binding signal (z-score),[9],1.84
same,glycan array binding signal (z-score),[10],0.231
same,glycan array binding signal (z-score),[11],2.27
same,glycan array binding signal (z-score),[12],0.348
same,glycan array binding signal (z-score),[13],2.4
same,glycan array binding signal (z-score),[14],1.74
same,glycan array binding signal (z-score),[15],0.245
same,glycan array binding signal (z-score),[16],0.213
same,glycan array binding signal (z-score),[17],-0.79
same,glycan array binding signal (z-score),[18],-1.23
same,glycan array binding signal (z-score),[19],0.023
same,glycan array binding signal (z-score),[20],-1.2
same,glycan array binding signal (z-score),[21],-0.439
same,glycan array binding signal (z-score),[22],-0.962
same,glycan array binding signal (z-score),[23],-0.072
same,glycan array binding signal (z-score),[24],-0.53
same,glycan array binding signal (z-score),[25],-0.597
same,glycan array binding signal (z-score),[26],0.061
same,glycan array binding signal (z-score),[27],-0.704
same,glycan array binding signal (z-score),[28],-0.483
same,glycan array binding signal (z-score),[29],0.185
same,glycan array binding signal (z-score),[30],-0.38
same,glycan array binding signal (z-score),[31],0.745
same,glycan array binding signal (z-score),[32],0.058
same,glycan array binding signal (z-score),[33],0.538
same,glycan array binding signal (z-score),[34],1.01
same,glycan array binding signal (z-score),[35],-0.786
same,glycan array binding signal (z-score),[36],-0.4
same,glycan array binding signal (z-score),[37],-0.388
same,glycan array binding signal (z-score),[38],0.628
same,glycan array binding signal (z-score),[39],-0.614
same,glycan array binding signal (z-score),[40],-0.346
same,glycan array binding signal (z-score),[41],-0.748
same,glycan array binding signal (z-score),[42],-0.627
same,glycan array binding signal (z-score),[43],0.147
same,glycan array binding signal (z-score),[44],-0.55
same,glycan array binding signal (z-score),[45],-0.763
same,glycan array binding signal (z-score),[46],-0.682
same,glycan array binding signal (z-score),[47],-0.141
same,glycan array binding signal (z-score),[48],0.105
same,glycan array binding signal (z-score),[49],0.459
same,glycan array binding signal (z-score),[50],-1.13
same,glycan array binding signal (z-score),[51],-0.51
same,glycan array binding signal (z-score),[52],-0.391
same,glycan array binding signal (z-score),[53],0.702

# Given bar-delimited: part of the list above.
binder | measurement | setting | value
KISKRILTGKK [NK11 (Sus scrofa)] | glycan array binding signal (z-score) | [32] | 0.058
same | glycan array binding signal (z-score) | [37] | -0.388
same | glycan array binding signal (z-score) | [39] | -0.614
